The record followed here is paper PMC9508819, “Rbp95 binds to 25S rRNA helix H95 and cooperates with the Npa1 complex during early pre-60S particle maturation”.

What all share (assay): co-IP; tandem-affinity purification from yeast lysate (IgG Sepharose, TEV elution, Calmodulin Sepharose, EGTA elution); 50 mM Tris-HCl pH 7.5, 100 mM NaCl, 1.5 mM MgCl2, 0.1% NP-40, 1 mM DTT; eluates analysed by western blotting; for Figure 8C from wild-type and Δrbp95 strains
One test has as its target T1, Lsg1-TAP (S. cerevisiae) (UniProt P53145).
T1 sequence: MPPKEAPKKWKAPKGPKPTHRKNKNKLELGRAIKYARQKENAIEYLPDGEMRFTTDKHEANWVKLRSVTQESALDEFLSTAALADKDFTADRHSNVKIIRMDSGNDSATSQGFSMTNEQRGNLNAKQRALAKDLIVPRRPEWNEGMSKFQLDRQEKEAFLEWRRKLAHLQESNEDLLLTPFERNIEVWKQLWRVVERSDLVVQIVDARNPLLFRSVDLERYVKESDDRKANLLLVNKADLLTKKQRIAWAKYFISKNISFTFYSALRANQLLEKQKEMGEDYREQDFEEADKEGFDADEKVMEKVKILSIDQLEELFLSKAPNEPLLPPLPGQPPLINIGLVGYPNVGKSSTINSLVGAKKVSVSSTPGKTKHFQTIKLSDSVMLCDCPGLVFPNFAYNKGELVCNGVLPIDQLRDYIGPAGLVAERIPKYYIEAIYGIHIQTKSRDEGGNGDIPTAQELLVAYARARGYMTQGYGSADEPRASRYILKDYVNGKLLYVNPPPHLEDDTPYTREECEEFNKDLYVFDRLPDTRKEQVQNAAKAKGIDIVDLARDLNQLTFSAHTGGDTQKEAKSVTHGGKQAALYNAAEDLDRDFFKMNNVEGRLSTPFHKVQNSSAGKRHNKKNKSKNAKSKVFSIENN

For a further test, the target named is T2, Noc2-TAP (S. cerevisiae) (UniProt P39744).
T2 sequence: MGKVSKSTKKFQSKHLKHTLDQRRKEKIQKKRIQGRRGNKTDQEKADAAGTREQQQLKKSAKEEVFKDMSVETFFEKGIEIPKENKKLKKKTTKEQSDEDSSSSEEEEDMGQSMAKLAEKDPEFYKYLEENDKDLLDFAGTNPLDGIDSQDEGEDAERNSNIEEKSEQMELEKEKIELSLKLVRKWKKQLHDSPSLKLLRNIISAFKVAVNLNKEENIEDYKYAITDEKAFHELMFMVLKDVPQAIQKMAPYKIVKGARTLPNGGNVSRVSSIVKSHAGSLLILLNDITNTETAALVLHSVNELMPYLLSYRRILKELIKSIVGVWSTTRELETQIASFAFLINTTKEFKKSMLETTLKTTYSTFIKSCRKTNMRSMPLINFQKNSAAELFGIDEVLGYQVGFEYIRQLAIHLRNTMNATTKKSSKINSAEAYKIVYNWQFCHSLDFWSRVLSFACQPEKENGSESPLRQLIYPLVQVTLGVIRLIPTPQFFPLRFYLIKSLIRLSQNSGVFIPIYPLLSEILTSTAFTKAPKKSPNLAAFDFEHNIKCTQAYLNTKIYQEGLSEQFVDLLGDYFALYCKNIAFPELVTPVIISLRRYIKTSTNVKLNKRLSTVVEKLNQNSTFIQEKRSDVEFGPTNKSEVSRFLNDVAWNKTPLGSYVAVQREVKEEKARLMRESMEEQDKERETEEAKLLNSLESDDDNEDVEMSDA

The next test deals with T3, Nsa1-TAP (S. cerevisiae) (UniProt P53136).
T3 sequence: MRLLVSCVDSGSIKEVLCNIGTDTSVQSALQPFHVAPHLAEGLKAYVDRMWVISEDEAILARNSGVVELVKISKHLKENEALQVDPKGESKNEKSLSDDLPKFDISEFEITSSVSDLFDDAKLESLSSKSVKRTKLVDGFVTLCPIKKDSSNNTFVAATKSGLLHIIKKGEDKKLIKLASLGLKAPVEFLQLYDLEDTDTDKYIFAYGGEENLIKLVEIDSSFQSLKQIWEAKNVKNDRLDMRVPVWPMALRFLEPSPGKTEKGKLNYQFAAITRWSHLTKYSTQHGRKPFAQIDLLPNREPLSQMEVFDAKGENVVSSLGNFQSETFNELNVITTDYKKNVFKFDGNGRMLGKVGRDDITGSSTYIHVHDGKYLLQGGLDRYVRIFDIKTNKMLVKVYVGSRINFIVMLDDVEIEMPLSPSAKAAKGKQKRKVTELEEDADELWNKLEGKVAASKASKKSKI

These are yes or no findings as the source states them, for the method shown. Binding seen in cells or lysates may run through a third protein. Some binding calls cover weakened binding; strength is not graded here.

B1: Rbp95 (Ycr016w) (protein, UniProt P25617 1-290)
chain: MSENHVPAWKRIALKRQTISSGDESKEKGQSNLIDDDPLNITTHLSTGNLTKKEKKRIINGESKSSTKKGKRVSKPGTKKKEKLSKDEKNSKKNKILKDQLRYLIEFFRTKSESKFPTGILELESVKENYGDSLIKDEPSESGVVEVWKFSKQKQNWLIKHFFNLDEIPSVYNDLLLLYFRDLQGKSKEELISKCKGKLKQWNDYVEDQETKIKALIAEDKASEPINGEEKEEGEKDGNAEQGKQKEVQDEQEEVQMPNKELVQRSLKLLEIWKNDDSEQIELKNFFVDV
Take B1: the binding entry is “binds weakly” with Lsg1-TAP (S. cerevisiae), “binds” with Noc2-TAP (S. cerevisiae) and “binds weakly” with Nsa1-TAP (S. cerevisiae).
